PubChem BioAssay AID1224826 – NIAID – 2016
This is an unselected part of about 17,000 deposited reagents. About 1,110 of them (6.6%) count as active. 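Active means lowered or raised reporter signal; replicate intensities are raw and not normalised per plate.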 A number with no mark means an inactive call. Not all columns of the deposit are shown.

Screen: 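Knock-downs that raise or lower Tnf reporter signal after endotoxin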 (primary screen)
System: RAW264.7 G9 macrophages from mouse bearing reporters for p65 (GFP) and the Tnf promoter (mCherry)
Reagents: siRNA pool against mouse genes, 100 nM
Time to read-out: 16 h of LPS stimulation, after 2 days of siRNA transfection
Conditions: bacterial lipopolysaccharide (Salmonella minnesota R595), 10 ng/ml
Detection: 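Nuclear mCherry signal of the Tnf promoter reporter measured by imaging after background removal, scaled to each plate median and turned into robust z-scores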
Scale: Tnf reporter robust z-score: higher = stronger Tnf promoter reporter signal after LPS
Call rule: 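Called active when robust z-score is at most -1.3, matching the median of the Tlr4 knock-down control, or over 3; control wells and wells with under 50 cells never active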
Meaning of the calls: active = Tnf reporter clearly lowered or raised; inactive = no clear change in Tnf reporter

| target | Tnf reporter robust z-score | fewer than 50 cells in well |
| --- | --- | --- |
| Gpcpd1 (GeneID 74182) | – | fewer than 50 cells per well; well left out of calls |
| Slc9b1 (GeneID 74446) | -0.3 | enough cells in well |
| Or2ak5 (GeneID 258494) | 0.6 | enough cells in well |
| Wasf2 (GeneID 242687) | 0.39 | enough cells in well |
| Mdh1 (GeneID 17449) | -1.57 (active) | enough cells in well |
| Tmem186 (GeneID 66690) | – | fewer than 50 cells per well; well left out of calls |
| Mos (GeneID 17451) | – | fewer than 50 cells per well; well left out of calls |
| Or4c12 (GeneID 258338) | 2.33 | enough cells in well |
| Utp20 (GeneID 70683) | -0.5 | enough cells in well |
| Zbtb7c (GeneID 207259) | -0.46 | enough cells in well |
| Cyp4a12a (GeneID 277753) | 1.57 | enough cells in well |
| Vav2 (GeneID 22325) | -0.27 | enough cells in well |
| Vstm2a (GeneID 211739) | -0.86 | enough cells in well |
| Krtap4-2 (GeneID 68673) | – | fewer than 50 cells per well; well left out of calls |
| Nars2 (GeneID 244141) | -0.39 | enough cells in well |
| Dynlt4 (GeneID 242646) | – | fewer than 50 cells per well; well left out of calls |
| Mmadhc (GeneID 109129) | – | fewer than 50 cells per well; well left out of calls |
| 1700129C05Rik (GeneID 67932) | – | fewer than 50 cells per well; well left out of calls |
| Abca12 (GeneID 74591) | – | fewer than 50 cells per well; well left out of calls |
| Shank3 (GeneID 58234) | 1.66 | enough cells in well |
| Or4f14d (GeneID 258737) | 0.04 | enough cells in well |
| Gnl2 (GeneID 230737) | 0.13 | enough cells in well |
| Parvg (GeneID 64099) | 0.91 | enough cells in well |
| Mterf1b (GeneID 208595) | -0.57 | enough cells in well |
| Pex6 (GeneID 224824) | -0.29 | enough cells in well |
| Srpk1 (GeneID 20815) | – | fewer than 50 cells per well; well left out of calls |
| Uts2 (GeneID 24111) | – | fewer than 50 cells per well; well left out of calls |
| Cep83 (GeneID 77048) | – | fewer than 50 cells per well; well left out of calls |
| Sema3d (GeneID 108151) | 1.01 | enough cells in well |
| Hnrnpl (GeneID 15388) | 0.04 | enough cells in well |
| Smox (GeneID 228608) | – | fewer than 50 cells per well; well left out of calls |
| Smad1 (GeneID 17125) | -0.55 | enough cells in well |
| Cd207 (GeneID 246278) | -1.17 | enough cells in well |
| Macroh2a2 (GeneID 404634) | -0.95 | enough cells in well |
| 2610524H06Rik (GeneID 330173) | – | fewer than 50 cells per well; well left out of calls |
| Moxd1 (GeneID 59012) | 1.2 | enough cells in well |
| Cryab (GeneID 12955) | -0.52 | enough cells in well |
| Braf (GeneID 109880) | -0.72 | enough cells in well |
| Ppp2r1b (GeneID 73699) | -0.45 | enough cells in well |
| Mx2 (GeneID 17858) | -0.02 | enough cells in well |
| Islr (GeneID 26968) | 1.59 | enough cells in well |
| Dqx1 (GeneID 93838) | -0.18 | enough cells in well |
| D830024N08Rik (GeneID 105246804) | 0.28 | enough cells in well |
| Pltp (GeneID 18830) | -0.93 | enough cells in well |
| Ccdc85a (GeneID 216613) | -0.78 | enough cells in well |
| Dll1 (GeneID 13388) | -0.79 | enough cells in well |
| Mysm1 (GeneID 320713) | -0.78 | enough cells in well |
| Il7r (GeneID 16197) | -0.22 | enough cells in well |
| Fcsk (GeneID 234730) | -0.61 | enough cells in well |
| Cpne2 (GeneID 234577) | 0.4 | enough cells in well |
| Tmem97 (GeneID 69071) | -0.84 | enough cells in well |
| Tssk6 (GeneID 83984) | 0.25 | enough cells in well |
| Tnfsf18 (GeneID 240873) | -0.48 | enough cells in well |
| Mpp1 (GeneID 17524) | -0.83 | enough cells in well |
| Acp7 (GeneID 101744) | -0.13 | enough cells in well |
| Tnp2 (GeneID 21959) | – | fewer than 50 cells per well; well left out of calls |
| Cdk6 (GeneID 12571) | -0.26 | enough cells in well |
| Adgrf3 (GeneID 381628) | 0.02 | enough cells in well |

9 successive records from above, quoted:
| target | Tnf reporter robust z-score | fewer than 50 cells in well |
| --- | --- | --- |
| D830024N08Rik (GeneID 105246804) | 0.28 | enough cells in well |
| Pltp (GeneID 18830) | -0.93 | enough cells in well |
| Ccdc85a (GeneID 216613) | -0.78 | enough cells in well |
| Dll1 (GeneID 13388) | -0.79 | enough cells in well |
| Mysm1 (GeneID 320713) | -0.78 | enough cells in well |
| Il7r (GeneID 16197) | -0.22 | enough cells in well |
| Fcsk (GeneID 234730) | -0.61 | enough cells in well |
| Cpne2 (GeneID 234577) | 0.4 | enough cells in well |
| Tmem97 (GeneID 69071) | -0.84 | enough cells in well |
